One assay has as its target c-Raf (P04049) (UniProt P04049). Description: yeast two-hybrid 40K interaction matrix (mating, growth and β-galactosidase).
The target of a further assay is FBP (AF049528) (UniProt O75400). The assay is described as above.

Protein sequences, listed by entry. Tags and fused reporters are not part of them. Lines headed by an entry give the natural chain unless they say otherwise; changes in a name come on top.
UniProt O75400: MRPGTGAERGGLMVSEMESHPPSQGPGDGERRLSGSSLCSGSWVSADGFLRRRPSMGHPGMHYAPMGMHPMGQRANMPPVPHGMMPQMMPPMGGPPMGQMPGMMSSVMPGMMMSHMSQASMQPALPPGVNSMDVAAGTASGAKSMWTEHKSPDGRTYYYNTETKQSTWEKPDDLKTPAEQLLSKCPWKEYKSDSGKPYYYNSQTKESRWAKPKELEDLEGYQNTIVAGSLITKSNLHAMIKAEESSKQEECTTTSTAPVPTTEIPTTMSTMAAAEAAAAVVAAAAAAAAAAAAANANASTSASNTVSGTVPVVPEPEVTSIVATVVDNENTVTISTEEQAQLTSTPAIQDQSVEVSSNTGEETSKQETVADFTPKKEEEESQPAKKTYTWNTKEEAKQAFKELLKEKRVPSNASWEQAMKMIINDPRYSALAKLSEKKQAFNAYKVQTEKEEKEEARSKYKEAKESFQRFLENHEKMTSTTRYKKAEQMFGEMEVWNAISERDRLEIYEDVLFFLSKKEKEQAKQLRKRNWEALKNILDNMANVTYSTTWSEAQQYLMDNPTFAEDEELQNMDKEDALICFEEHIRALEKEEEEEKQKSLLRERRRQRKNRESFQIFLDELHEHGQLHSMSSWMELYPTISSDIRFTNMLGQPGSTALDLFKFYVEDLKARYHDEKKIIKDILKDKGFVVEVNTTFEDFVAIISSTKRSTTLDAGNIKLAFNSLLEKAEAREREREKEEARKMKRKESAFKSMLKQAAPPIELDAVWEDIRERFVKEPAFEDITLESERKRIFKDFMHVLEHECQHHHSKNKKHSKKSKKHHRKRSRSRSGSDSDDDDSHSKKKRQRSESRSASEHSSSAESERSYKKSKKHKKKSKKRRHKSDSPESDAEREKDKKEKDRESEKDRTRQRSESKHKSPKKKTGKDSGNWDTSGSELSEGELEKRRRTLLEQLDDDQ
UniProt P06732: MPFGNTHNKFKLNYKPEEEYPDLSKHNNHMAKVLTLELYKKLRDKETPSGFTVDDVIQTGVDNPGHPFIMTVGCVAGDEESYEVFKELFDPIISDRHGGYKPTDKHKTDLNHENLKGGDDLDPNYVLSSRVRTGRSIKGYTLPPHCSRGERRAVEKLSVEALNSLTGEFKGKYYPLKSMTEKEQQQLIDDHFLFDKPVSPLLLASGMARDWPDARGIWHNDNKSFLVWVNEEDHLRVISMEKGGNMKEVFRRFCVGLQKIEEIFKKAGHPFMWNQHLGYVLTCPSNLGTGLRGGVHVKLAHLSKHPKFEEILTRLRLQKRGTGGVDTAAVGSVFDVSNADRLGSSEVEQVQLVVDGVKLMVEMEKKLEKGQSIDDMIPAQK

Results are given in words; binding and its absence hold for the method and conditions named. Some results given as binding are weak or reduced against the parent protein; the word gives no strength.

For the substance “AAA52025, muscle isoform of creatine kinase (creatine kinase M) (from UniProt P06732 1-381) (enzyme)”, the binding result with c-Raf (P04049) and with FBP (AF049528) was “binds” in each case.

(Values after US20040072170A1.)
